Experimental data taken from PMC13189808.
Results are given in words; binding and its absence hold for the method and conditions named. In cells and extracts the contact can be indirect. Here binding means that the protein was enriched with, or labelled near, the bait; the list need not be complete.

Protein sequences, listed by entry. Tags and fused reporters are not part of them. Residues count along the entry.
UniProt Q13443, residues 29-819: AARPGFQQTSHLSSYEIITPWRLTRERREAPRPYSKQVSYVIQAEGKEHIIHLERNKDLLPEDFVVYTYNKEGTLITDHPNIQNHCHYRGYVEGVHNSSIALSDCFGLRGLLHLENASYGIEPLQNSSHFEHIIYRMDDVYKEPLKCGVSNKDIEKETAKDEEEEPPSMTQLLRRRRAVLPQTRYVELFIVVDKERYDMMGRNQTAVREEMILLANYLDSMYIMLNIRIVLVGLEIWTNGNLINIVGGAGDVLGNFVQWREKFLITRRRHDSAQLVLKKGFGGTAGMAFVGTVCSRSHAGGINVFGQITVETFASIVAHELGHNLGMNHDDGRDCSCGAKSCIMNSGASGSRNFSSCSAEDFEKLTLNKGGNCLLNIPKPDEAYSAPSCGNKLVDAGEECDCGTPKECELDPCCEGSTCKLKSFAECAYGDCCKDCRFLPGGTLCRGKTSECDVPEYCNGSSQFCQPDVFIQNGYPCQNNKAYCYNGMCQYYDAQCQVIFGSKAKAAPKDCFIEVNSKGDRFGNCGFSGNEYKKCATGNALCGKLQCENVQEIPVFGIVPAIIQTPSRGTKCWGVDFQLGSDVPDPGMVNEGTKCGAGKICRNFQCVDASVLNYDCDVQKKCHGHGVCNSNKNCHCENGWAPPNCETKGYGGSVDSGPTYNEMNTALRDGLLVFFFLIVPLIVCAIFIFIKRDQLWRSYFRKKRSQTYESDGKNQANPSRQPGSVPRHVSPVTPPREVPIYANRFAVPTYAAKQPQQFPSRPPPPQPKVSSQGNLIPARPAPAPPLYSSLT
UniProt P26599: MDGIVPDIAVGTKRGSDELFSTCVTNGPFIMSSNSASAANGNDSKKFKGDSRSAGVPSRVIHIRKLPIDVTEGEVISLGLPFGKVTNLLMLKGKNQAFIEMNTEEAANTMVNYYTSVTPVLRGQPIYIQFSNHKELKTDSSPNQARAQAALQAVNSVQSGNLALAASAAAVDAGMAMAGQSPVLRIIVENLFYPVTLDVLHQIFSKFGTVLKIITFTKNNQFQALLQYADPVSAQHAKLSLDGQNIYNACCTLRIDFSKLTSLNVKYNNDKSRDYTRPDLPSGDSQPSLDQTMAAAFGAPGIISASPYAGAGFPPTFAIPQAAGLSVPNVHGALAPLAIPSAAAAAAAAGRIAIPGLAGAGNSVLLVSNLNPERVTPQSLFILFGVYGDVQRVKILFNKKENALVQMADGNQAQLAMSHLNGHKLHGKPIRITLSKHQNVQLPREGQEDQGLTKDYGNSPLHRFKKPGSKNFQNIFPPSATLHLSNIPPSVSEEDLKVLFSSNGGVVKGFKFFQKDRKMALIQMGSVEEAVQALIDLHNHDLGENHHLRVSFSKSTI

B1: Arid4A (protein, UniProt P29374 1-1257)
chain: MKAADEPAYLTVGTDVSAKYRGAFCEAKIKTVKRLVKVKVLLKQDNTTQLVQDDQVKGPLRVGAIVETRTSDGSFQEAIISKLTDASWYTVVFDDGDERTLRRTSLCLKGERHFAESETLDQLPLTNPEHFGTPVIAKKTNRGRRSSLPVTEDEKEEESSEEEDEDKRRLNDELLGKVVSVVSATERTEWYPALVISPSCNDDITVKKDQCLVRSFIDSKFYSIARKDIKEVDILNLPESELSTKPGLQKASIFLKTRVVPDNWKMDISEILESSSSDDEDGPAEENDEEKEKEAKKTEEEVPEEELDPEERDNFLQQLYKFMEDRGTPINKPPVLGYKDLNLFKLFRLVYHQGGCDNIDSGAVWKQIYMDLGIPILNSAASYNVKTAYRKYLYGFEEYCRSANIQFRTVHHHEPKVKEEKKDLEESMEEALKLDQEMPLTEVKSEPEENIDSNSESEREEIELKSPRGRRRIARDVNSIKKEIEEEKTEDKLKDNDTENKDVDDDYETAEKKENELLLGRKNTPKQKEKKIKKQEDSDKDSDEEEEKSQEREETESKCDSEGEEDEEDMEPCLTGTKVKVKYGRGKTQKIYEASIKSTEIDDGEVLYLVHYYGWNVRYDEWVKADRIIWPLDKGGPKKKQKKKAKNKEDSEKDEKRDEERQKSKRGRPPLKSTLSSNMPYGLSKTANSEGKSDSCSSDSETEDALEKNLINEELSLKDELEKNENLNDDKLDEENPKISAHILKENDRTQMQPLETLKLEVGENEQIVQIFGNKMEKTEEVKKEAEKSPKGKGRRSKTKDLSLEIIKISSFGQNEAGSEPHIEAHSLELSSLDNKNFSSATEDEIDQCVKEKKLKRKILGQSSPEKKIRIENGMEMTNTVSQERTSDCIGSEGMKNLNFEQHFERENEGMPSLIAESNQCIQQLTSERFDSPAEETVNIPLKEDEDAMPLIGPETLVCHEVDLDDLDEKDKTSIEDVAVESSESNSLVSIPPALPPVVQHNFSVASPLTLSQDESRSVKSESDITIEVDSIAEESQEGLCERESANGFETNVASGTCSIIVQERESREKGQKRPSDGNSGLMAKKQKRTPKRTSAAAKNEKNGTGQSSDSEDLPVLDNSSKCTPVKHLNVSKPQKLARSPARISPHIKDGEKDKHREKHPNSSPRTYKWSFQLNELDNMNSTERISFLQEKLQEIRKYYMSLKSEVATIDRRRKRLKKKDREVSHAGASMSSASSDTGMSPSSSSPPQNVLAVECR

Legend:
[1] = biological target: endogenous human ADAM9 (human) (UniProt Q13443); assay: affinity purification with mass spectrometry; similar experiments with endogenous human ADAM9; proteins overlapping with the Adam13 hits
[2] = biological target: Adam13 (Xenopus adam13.L), full-length (Xenopus laevis); assay: affinity purification with mass spectrometry + proximity labelling; immunoprecipitation of full-length Adam13 and BioID (BioID2 inserted in the Adam13 cytoplasmic domain, HEK293T cells, biotin added, streptavidin beads); hits had to be in both sample types and absent from the ΔCyto controls; at least 2 unique peptides, 95% confidence

| Molecule | binding [1] | binding [2] |
| --- | --- | --- |
| PTBP1 (from UniProt P26599 1-557) | binds |  |
| B1 |  | binds |
